Some entries share one result that the patent states for a list of compounds.
System: T20-resistant and sensitive HIV-1 NL4-3 strains
Assay: Inhibition of replication of T20-resistant and sensitive strains, p24 assay (summary over strains)
Type: cell-based
Conditions: range over the four NL4-3 strains; read-out: IC50 against both T20-resistant and sensitive strains

Work on “IEAQQHLLQLTVWGIKQLQARILAVERYGYIPEAPRDGQAYVRKDGEWVLLSTFL [N28Fd]” yielded an IC50 of 27 to 59 nM.
